Measurements reported in publication PMC7672476, “Structural basis of Mfd-dependent transcription termination” (Nucleic Acids Research, 2020).
Numbering of substitutions follows the chain as printed. Construct, isoform or probe ends are uncertain for at least one entry. For some assays here: The comparison behind a weaker result is the experiment's own reference, which may not be listed here. Protein sequences can lack the tags named with them. For some assays here: At least one verdict rests on a figure or table, not on a statement of the authors.

Legend:
Mfd (Escherichia coli) = molecular target: T1, Mfd (Escherichia coli) (UniProt P30958); test: fluorescence polarization; conditions: 2 mM ATPgS, 5 mM Mg2+; FP: 10 mM HEPES pH 7.5, 50 mM KCl, 5 mM MgCl2, 2 mM ATPgS, 0.1 uM DNA, 0-16 uM Mfd, 10 min at 25 C; recombinant protein; protein details: N-His6; label: 5' 6-FAM on strand 1
T1 sequence (looked up, limits assumed): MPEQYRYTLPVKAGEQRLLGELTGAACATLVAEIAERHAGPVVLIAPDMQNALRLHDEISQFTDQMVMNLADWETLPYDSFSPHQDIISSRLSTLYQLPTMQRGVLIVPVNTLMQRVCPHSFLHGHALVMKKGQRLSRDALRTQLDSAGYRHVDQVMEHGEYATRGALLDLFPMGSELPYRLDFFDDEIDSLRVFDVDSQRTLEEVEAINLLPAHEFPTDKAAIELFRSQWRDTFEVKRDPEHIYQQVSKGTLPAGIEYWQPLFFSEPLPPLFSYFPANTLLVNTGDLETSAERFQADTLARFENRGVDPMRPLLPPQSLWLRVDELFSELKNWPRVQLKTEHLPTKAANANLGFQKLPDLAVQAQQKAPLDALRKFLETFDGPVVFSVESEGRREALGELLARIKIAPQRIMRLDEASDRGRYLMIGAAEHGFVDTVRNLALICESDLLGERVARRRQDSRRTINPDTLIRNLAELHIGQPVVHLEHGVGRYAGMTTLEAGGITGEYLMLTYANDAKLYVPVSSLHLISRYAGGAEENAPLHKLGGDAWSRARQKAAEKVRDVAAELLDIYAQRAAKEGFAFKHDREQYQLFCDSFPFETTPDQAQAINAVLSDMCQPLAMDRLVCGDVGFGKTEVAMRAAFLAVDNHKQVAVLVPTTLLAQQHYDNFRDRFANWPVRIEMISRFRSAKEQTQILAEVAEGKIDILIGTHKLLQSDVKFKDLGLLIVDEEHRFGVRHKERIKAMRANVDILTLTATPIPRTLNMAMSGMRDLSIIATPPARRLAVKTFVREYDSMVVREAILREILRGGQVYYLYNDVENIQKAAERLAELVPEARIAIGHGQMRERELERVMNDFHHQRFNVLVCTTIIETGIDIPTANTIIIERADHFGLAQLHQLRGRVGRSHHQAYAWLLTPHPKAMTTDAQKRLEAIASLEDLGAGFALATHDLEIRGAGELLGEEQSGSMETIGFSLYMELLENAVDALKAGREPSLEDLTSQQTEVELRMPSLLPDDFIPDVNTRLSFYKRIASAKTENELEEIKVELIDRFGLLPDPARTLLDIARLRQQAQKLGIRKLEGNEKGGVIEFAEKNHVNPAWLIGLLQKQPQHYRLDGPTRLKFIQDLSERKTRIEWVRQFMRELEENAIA

[1] = molecular target: T2, Mfd K739A (Escherichia coli) (UniProt P30958); test: fluorescence polarization; conditions: 2 mM ATPgS, 5 mM Mg2+; FP: 10 mM HEPES pH 7.5, 50 mM KCl, 5 mM MgCl2, 2 mM ATPgS, 0.1 uM DNA, 0-16 uM Mfd, 10 min at 25 C; recombinant protein; protein details: N-His6; label: 5' 6-FAM on strand 1
T2 sequence (looked up, limits assumed): T1 sequence (looked up, limits assumed) with K739A

**Q.** Does “AGCAAAGCTTCTTT (double strand) [6-FAM 14 bp DNA]” bind (Mfd (Escherichia coli))?
**A.** binds

**Q.** Does “AGCAAAGCTTCTTT (double strand) [6-FAM 14 bp DNA]” bind [1]?
**A.** binds more weakly
